# Measurements reported in PubChem BioAssay AID504467 (National Center for Advancing Translational Sciences (NCATS), 2011).
# Screen size: about 330,000 compounds; about 7,700 (2.3%) were called active. Inconclusive means that the source gave no clear call. Such entries were picked first, then a sample of the others. The call rests on the fitted dose curve; in most records, active means well fitted inhibition curve with a large enough effect; inconclusive means small, poorly fitted or top-dose-only effect, or effect the other way; inactive means flat fitted curve, though single readings scatter. Potencies beside an inconclusive call are fits to weak or partial responses and may not hold up.
# Test: qHTS screen for small molecules that inhibit ELG1-dependent DNA repair in human embryonic kidney (HEK293T) cells expressing luciferase-tagged ELG1; further: nearly all actives have a fitted effect of over 55% in size
# Conditions: HEK293T ELG1-luciferase reporter, luminescence, 16 h, DNA damage induced by 5-fluorouridine; series mostly up to 46.1 µM
# Summary of the method: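 HEK293T cells expressing luciferase-tagged ELG1 (2,000/well) received 5-Fluorouridine plus compound or DMSO for 16 hr at 37 °C. Luciferase was read by ONE-Glo luminescence after 30 min at room temperature.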
# Potency means the concentration at half of the fitted maximal effect.
row,Structure (SMILES),Potency
1,CC(=O)C1=C(O)C(=O)N(c2ccc(S(=O)(=O)Nc3nccs3)cc2)C1c1ccc(F)cc1 (stereo not drawn),"inconclusive: 2.31 µM [inhibitor, partial curve, poor fit]"
2,Cc1c(S(=O)(=O)NC2CCCCC2)c(=O)n(C)c(=O)n1C,"inconclusive: 20.6 µM [activator, single point]"
3,C=CCn1c(=NC(=O)c2cccs2)sc2cc(NC(C)=O)ccc21,"inconclusive: 16.4 µM [activator, partial curve]"
4,Cc1cc(C)c2nc(N3CCCN(C(=O)c4ccco4)CC3)c(C#N)cc2c1,inactive
5,CC(Sc1ccccc1)C(=O)N1CCN(S(=O)(=O)c2ccc(Cl)cc2)CC1 (stereo not drawn),inactive
6,COc1ccc(CNC(=O)c2cc(S(=O)(=O)N3CCCCC3)ccc2Cl)cc1OC,active: 6.51 µM
7,Oc1ccc(Br)cc1-c1nc2cnccn2c1NC1CCCCC1,inactive
8,CCc1ccc(NS(=O)(=O)c2cc3c4c(c2)CCN4C(=O)CC3)cc1,"inconclusive: 29.1 µM [activator, single point]"
9,N#C/C(=C/c1cccc([N+](=O)[O-])c1)c1nnc2n1CCCCC2,"inconclusive: 25.9 µM [inhibitor, partial curve, poor fit]"
10,COc1ccc(C(C(=O)NC2CCCC2)N(C(=O)c2snc(C(N)=O)c2N)c2cccc(O)c2)cc1 (stereo not drawn),active: 16.4 µM
11,Cc1ccc(OCc2cc(C(=O)N(CCO)Cc3cccs3)no2)cc1C,"inconclusive: 13 µM [activator, partial curve]"
12,O=C(NC1CC1)C1=C[C@@H](C2CCCCC2)C[C@@H](OCc2ccc(CO)cc2)O1,"inconclusive: 20.6 µM [inhibitor, single point]"
13,COc1cccc(NC(=O)N(CCCN2CCOCC2)C(C)c2cc3ccccc3o2)c1 (stereo not drawn),inactive
14,COc1ccc(CC(=O)Nc2nccs2)cc1OC,"inconclusive: 16.4 µM [inhibitor, partial curve, poor fit]"
15,CCCS(=O)(=O)N1CCC(C(=O)NC2CCCC(C)C2C)CC1 (stereo not drawn),"inconclusive: 32.6 µM [activator, single point]"
16,COc1ccc(Cc2nc3ccccc3n2CC(=O)N/N=C/c2ccc(C)cc2O)cc1OC,inactive
17,CCn1c(SCc2nc3ccccc3[nH]2)nnc1-c1ccc(OC)cc1,inactive
18,O=C(CCCOc1ccccc1)N1CCN(S(=O)(=O)c2ccccc2)CC1,inactive
19,COc1ccccc1C(c1nnnn1CCc1ccccc1)N1CCCCCC1 (stereo not drawn),inactive
20,Cc1nn(C)c(C)c1CNC(=O)c1nn2c(c1Cl)NC(c1cccs1)CC2C(F)(F)F (stereo not drawn),"inconclusive: 13 µM [inhibitor, partial curve]"
21,CCCC(=O)Nc1sc2c(c1C#N)CCCCC2,"inconclusive: 9.2 µM [activator, partial curve]"
22,c1ccc(-n2nnc3ccccc32)nc1,"inconclusive: 20.6 µM [activator, partial curve, poor fit]"

row,Structure (SMILES),Potency
1,CC1C(=O)N2CCCc3cc(NC(=O)C(=O)NCc4ccccn4)cc1c32 (stereo not drawn),inactive
2,CCCCN(C(=O)COC(=O)c1nc2nccc(C)n2n1)C1CCS(=O)(=O)C1 (stereo not drawn),"inconclusive: 14.6 µM [activator, partial curve]"
3,COCCn1c(SCc2nc3scc(-c4ccc(Cl)cc4)c3c(=O)[nH]2)nnc1-c1cccc(C)c1,active: 23.1 µM
4,O=C(NCC1CCCCC1)C1(CC2CC(c3cccc(Br)c3)=NO2)CCNCC1 (stereo not drawn),"inconclusive: 23.1 µM [activator, single point]"
5,CCCNC(=O)c1ccc(N2CCC3(CC2)CC(c2cccc(Br)c2)=NO3)c(NC(=O)c2cccc(C)c2)c1,"inconclusive: 31.6 µM [inhibitor, single point]"
6,CN(C)CCCNC(=O)C[C@H]1C[C@H](C(=O)N2CCCCC2)[C@@]2(C)c3[nH]c4cc(CCC(=O)N(C)C)ccc4c3CCN2C1=O,"inconclusive: 32.6 µM [activator, partial curve, poor fit]"
7,Clc1ccccc1-c1nc2ccccc2c2nc3ccccc3n12,"inconclusive: 29.1 µM [inhibitor, partial curve, poor fit]"
8,COc1ccccc1OCC(=O)NNC(=O)C1CCN(c2ncnc3sc(C)c(C)c23)CC1,"inconclusive: 16.4 µM [inhibitor, single point]"
9,COc1ccc(/C(C)=N/NC(=O)c2ccccc2N)cc1,"inconclusive: 16.4 µM [activator, partial curve]"
10,COc1ccc(NC(=O)n2ncc3c(C)cccc32)cc1OC,"inconclusive: 16.4 µM [activator, partial curve]"
11,COc1ccc(CC(=O)Nc2ccc(S(=O)(=O)N3CCCCC3)cc2)cc1OC,inactive
12,CC(C)(C)OC(=O)N1CCC(Cc2cc(-c3ccc(Cl)cc3)no2)(C(=O)O)CC1,inactive
13,C/C(=N\NC(=O)c1ccco1)c1ccc(NC(=O)C(F)(F)F)cc1,"inconclusive: 25.9 µM [activator, single point]"
14,O=C(COc1ccccc1Cl)c1ccc[nH]1,"inconclusive: 18.3 µM [activator, partial curve]"
15,O=c1[nH]c(CSc2nc(-c3ccccc3)cs2)nc2ccccc12,"inconclusive: 29.1 µM [inhibitor, single point]"
16,CCn1c(SCc2ccc(Cl)cc2)nc2nc3c(cc2c1=O)CCCC3,"inconclusive: 20.6 µM [inhibitor, partial curve, poor fit]"
17,Cc1cc2nc(C)c(Cl)c(=O)n2[nH]1,inactive
18,COc1ccc(N/N=C(/N=Nc2nc(C)cc(=O)[nH]2)c2ccccc2)cc1,"inconclusive: 10.3 µM [inhibitor, partial curve]"
19,CC(C)Cc1ccc(S(=O)(=O)N2CCN(C(=O)c3ccco3)CC2)cc1,"inconclusive: 25.9 µM [inhibitor, single point]"
20,CC(C)(C)C(=O)Nc1ccc2c(c1)OCCOCCOc1cc(NC(=O)C(C)(C)C)ccc1OCCOCCO2,active: 7.3 µM
21,COC(=O)c1cc(-c2ccccc2)sc1N,"inconclusive: 23.1 µM [activator, single point]"

# Exported bar-delimited: entries from further up.
row | Structure (SMILES) | Potency
2 | CCCCN(C(=O)COC(=O)c1nc2nccc(C)n2n1)C1CCS(=O)(=O)C1 (stereo not drawn) | inconclusive: 14.6 µM [activator, partial curve]
3 | COCCn1c(SCc2nc3scc(-c4ccc(Cl)cc4)c3c(=O)[nH]2)nnc1-c1cccc(C)c1 | active: 23.1 µM
4 | O=C(NCC1CCCCC1)C1(CC2CC(c3cccc(Br)c3)=NO2)CCNCC1 (stereo not drawn) | inconclusive: 23.1 µM [activator, single point]
